These are yes or no findings as the source states them, for the method shown. Binding seen in cells or lysates may run through a third protein. Some binding calls cover weakened binding; strength is not graded here.
Target: mouse β1 integrin (mouse) (UniProt P09055)
Test: co-immunoprecipitation from lysates of co-transfected HEK cells, blotted with HA or Flag antibodies

Protein sequences, listed by entry. Tags and fused reporters are not part of them. Residues count along the entry.
UniProt P09055, residues 21-798: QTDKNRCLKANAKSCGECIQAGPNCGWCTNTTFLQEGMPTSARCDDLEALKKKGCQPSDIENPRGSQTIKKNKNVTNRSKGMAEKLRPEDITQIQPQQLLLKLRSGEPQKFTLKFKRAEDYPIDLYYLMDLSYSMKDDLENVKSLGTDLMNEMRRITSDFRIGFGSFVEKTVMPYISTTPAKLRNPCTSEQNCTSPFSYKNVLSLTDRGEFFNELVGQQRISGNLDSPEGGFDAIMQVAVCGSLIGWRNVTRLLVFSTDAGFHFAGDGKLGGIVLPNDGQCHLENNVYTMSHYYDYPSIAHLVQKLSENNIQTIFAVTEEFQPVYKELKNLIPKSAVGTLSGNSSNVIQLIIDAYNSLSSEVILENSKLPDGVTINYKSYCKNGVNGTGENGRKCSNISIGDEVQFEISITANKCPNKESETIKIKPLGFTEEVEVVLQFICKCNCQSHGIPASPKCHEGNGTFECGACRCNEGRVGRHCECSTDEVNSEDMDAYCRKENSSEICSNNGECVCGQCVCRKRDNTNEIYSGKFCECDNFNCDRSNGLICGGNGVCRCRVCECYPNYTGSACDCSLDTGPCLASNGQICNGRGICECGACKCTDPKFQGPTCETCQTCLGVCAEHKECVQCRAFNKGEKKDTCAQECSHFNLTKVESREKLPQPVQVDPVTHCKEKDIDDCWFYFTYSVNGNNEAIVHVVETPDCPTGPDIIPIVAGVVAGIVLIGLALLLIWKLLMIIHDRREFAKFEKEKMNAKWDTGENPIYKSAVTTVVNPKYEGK
UniProt Q03405, residues 23-305: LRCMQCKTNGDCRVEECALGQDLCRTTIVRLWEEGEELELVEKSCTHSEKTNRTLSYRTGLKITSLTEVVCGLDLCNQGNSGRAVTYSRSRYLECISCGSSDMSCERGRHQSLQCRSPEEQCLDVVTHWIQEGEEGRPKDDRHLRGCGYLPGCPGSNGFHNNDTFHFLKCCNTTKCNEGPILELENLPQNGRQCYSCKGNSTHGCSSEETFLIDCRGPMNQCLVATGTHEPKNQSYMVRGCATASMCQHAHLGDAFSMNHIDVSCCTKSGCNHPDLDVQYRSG

With “full length human uPAR (from UniProt Q03405 23-305) (receptor)” as the substance, how does the binding read?
The binding was “binds”.
